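Luminescence from an EWS-FLI1 target-promoter (NR0B1) reporter, set against a CMV-promoter reporter, two days after silencing single genes in TC32 Ewing sarcoma cells.
Each siRNA was applied at 20 nM.
A z-score of the log NR0B1-over-CMV signal, less the median of siRNAs with the same seed; more negative means a stronger specific loss of the NR0B1 reporter.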

The strongest results of the screen are mostly left out here.
Sequences are the guide (antisense) strand, without overhang.

| siRNA | gene | seed-corrected z-score |
|---|---|---|
| `UGCUUGGUCAGAGCUCCCU` | CASP16P | 0.524 |
| `UUAGUAGCAGCUGAAAACC` | NUSAP1 | -0.4931 |
| `UUCUGUUGCAGGGUCUCGG` | PTRHD1 | 1.942 |
| `UUCACAACCGAAAAGAUAG` | NPM1 | -0.3071 |
| `AGGUUGGUCAUGUAGAUGC` | GPR35 | -0.05728 |
| `UAGAGGUCCAGAGGUUUCC` | ARID1A | -0.3874 |
| `UAGGACAAAAGAACCAGGC` | OR2F1 | 0.4703 |
| `AAUGUUACGAUGCUCCAGG` | F11 | 0.4006 |
| `UUUGAGUUUGAGUAUACAC` | CPA4 | -0.4631 |
| `UGUUGUCACAUUUCGGCUG` | SMOC2 | -0.5029 |
| `UACGGGUUCGCGUUCCUUC` | SARM1 | -0.1487 |
| `AGAGGUCGAAGAUGUAGCG` | BUD31 | -0.5102 |
| `UUUCAUAGGCGAAUACACC` | DMPK | -0.3577 |
| `UCUCAAAUAGCUCGUAUCC` | ZNF791 | -0.1988 |
| `UCAGUGUUAUCCCUUCUCG` | GRAMD2 | 0.5552 |
| `ACCAUAAUUACCAGGAUGC` | OR10T2 | 0.718 |
| `UACAUGUGAUCAUUUGGGU` | KRTAP5-9 | 2.06 |
| `UUCUAAUGCAGAUACACUG` | NOX4 | 0.0211 |
| `UUAAAGACCAUUUAAAGGC` | ZNF141 | -0.7312 |
| `UGAUAAUUCAAUAACAUGC` | TM9SF2 | 0.01159 |
| `UUCCUCGUAAACUCAACUC` | LRRC58 | -0.04824 |
| `UAACUGAUUAUUAACAUCC` | BRDT | 0.2211 |
| `ACACCGUUUACAAAUUUGG` | SLC28A3 | -0.1987 |
| `UCUCUGAUAAGCAGUACUG` | PAH | -0.2498 |
| `UGAGUUUCAGGAUUCCGGC` | NFATC1 | -1.044 |
| `UGUUAAUUGAUGGUAUAGC` | KIAA2026 | 0.9152 |
| `UGAGUUUGCAUGAGAAACC` | LOC729770 | 1.407 |
| `UUAUAGAUGACGUAGAUGG` | SLC6A2 | 0.6645 |
| `AAUGAUGUAACUCUGAACC` | KLHL6 | -0.3445 |
| `AACGAUGUCAUAACACUUG` | PRKAG2 | 0.07652 |
| `AAUGCUGUAGAACAAAAGC` | LRRC37BP1 | 1.178 |
| `UCCUGAAAGAGUGAGUGCG` | SLC35E4 | -0.5018 |
| `AUACUAACCAAGAAGGAUC` | SLC36A4 | -0.6779 |
| `UCUCUGACAGGGUCUCCUC` | TOMM22P5 | -0.4183 |
| `AUUCUCACCAAUAAGCAUC` | LOC644090 | 2.209 |
| `UUUGGUUUUCAUGCAUGUG` | NIM1K | 0.3095 |
| `UGCGUGCUGAAGUUGGAGC` | ZNF500 | -0.2421 |
| `UAGGUAGACAUCUCUCUUC` | C2orf88 | 0.5926 |
| `AUAUCAACCAAUCGAGUCC` | FBXO38 | 0.5721 |
| `UUCUAUUACAUCGAUAAGC` | FAM198B | -0.4292 |
| `ACAAAUCCAAGCUUUGACG` | RMND1 | 0.5612 |

Once more, the final 4:

- UAGGUAGACAUCUCUCUUC against C2orf88 | seed-corrected z-score 0.5926
- AUAUCAACCAAUCGAGUCC against FBXO38 | seed-corrected z-score 0.5721
- UUCUAUUACAUCGAUAAGC against FAM198B | seed-corrected z-score -0.4292
- ACAAAUCCAAGCUUUGACG against RMND1 | seed-corrected z-score 0.5612

Source: PubChem BioAssay AID1159506 (NCATS, 2015).